This passage reports binding results from article PMC7290032.

Sequences of proteins named here, by UniProt entry; tags and fusion partners are left off. A change or cut given only in a name is not applied to a line headed by its entry.
UniProt Q8N3J3: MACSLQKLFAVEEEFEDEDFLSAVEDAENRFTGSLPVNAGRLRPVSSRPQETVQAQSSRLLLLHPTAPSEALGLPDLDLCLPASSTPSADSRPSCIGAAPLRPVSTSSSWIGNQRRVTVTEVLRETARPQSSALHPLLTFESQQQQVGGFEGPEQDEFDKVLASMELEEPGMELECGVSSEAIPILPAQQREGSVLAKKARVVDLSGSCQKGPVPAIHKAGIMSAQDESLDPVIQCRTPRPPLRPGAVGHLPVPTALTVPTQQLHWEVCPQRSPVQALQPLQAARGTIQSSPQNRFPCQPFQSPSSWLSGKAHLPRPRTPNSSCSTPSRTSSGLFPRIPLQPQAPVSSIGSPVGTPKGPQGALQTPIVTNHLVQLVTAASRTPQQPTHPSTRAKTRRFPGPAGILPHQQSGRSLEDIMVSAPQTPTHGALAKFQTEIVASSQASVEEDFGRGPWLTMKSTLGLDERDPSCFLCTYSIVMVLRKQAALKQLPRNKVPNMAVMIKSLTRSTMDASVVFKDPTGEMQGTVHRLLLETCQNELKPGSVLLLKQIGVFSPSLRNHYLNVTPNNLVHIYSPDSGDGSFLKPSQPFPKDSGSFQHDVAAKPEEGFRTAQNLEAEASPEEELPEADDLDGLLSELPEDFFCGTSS
UniProt P27694: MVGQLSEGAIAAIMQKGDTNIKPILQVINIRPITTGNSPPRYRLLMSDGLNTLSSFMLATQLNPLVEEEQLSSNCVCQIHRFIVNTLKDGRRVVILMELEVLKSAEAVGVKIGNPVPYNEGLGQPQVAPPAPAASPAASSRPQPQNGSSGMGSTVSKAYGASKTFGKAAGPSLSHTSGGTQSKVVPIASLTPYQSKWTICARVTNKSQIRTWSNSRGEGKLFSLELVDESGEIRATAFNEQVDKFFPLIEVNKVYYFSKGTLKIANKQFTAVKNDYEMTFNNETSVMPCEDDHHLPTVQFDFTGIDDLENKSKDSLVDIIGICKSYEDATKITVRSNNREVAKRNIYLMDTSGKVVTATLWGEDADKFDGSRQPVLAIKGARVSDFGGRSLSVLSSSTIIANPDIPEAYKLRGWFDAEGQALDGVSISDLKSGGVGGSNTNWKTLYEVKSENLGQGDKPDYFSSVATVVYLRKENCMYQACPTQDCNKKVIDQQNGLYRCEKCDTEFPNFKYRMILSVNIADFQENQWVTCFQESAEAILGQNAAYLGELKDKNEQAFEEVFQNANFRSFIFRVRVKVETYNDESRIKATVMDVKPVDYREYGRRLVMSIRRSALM

Assay [1] has as its target GST-MCM8IP lacking the second acidic motif (Δ153–168) (human) (UniProt Q8N3J3). Put plainly: pull-down; GST fusion from E. coli held on glutathione-agarose and washed, incubated 2 h at 4 °C with cleared lysate of bacteria expressing the partner; 20 mM Tris-HCl pH 7.5, 200 mM NaCl, 0.5% NP40; western blot; only the target purified.
Assay [2] concerns the target GST-MCM8IP lacking the first acidic motif (Δ1–54) (human) (UniProt Q8N3J3). Described as above.

These are yes or no findings as the source states them, for the method shown. Binding seen in cells or lysates may run through a third protein. Binding calls can cover weak binding; strength is not graded here.

With “RPA1 (expressed in bacteria) (from UniProt P27694 1-616)”, the binding entry in assay [1] and in assay [2] was “binds” each time.
